Taken from: PubChem BioAssay AID504786 (Drosophila RNAi Screening Center, 2011)

- Purpose: 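Positive regulators of HIF-driven reporter output in Drosophila cells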 (primary screen)
- System: Drosophila S2 cells with a stable HIF luciferase reporter
- Reagent: long dsRNA against Drosophila genes, about 0.2 µg dsRNA per well of a 384-well plate
- Timing: three days of knock-down, then 20 h of DFO before reading
- Treatment: desferrioxamine (DFO) at 100 µM, an iron chelator that mimics hypoxia, for 20 h
- Measured: 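HIF reporter luminescence in cells given 100 µM DFO for 20 h, using the mouse ldh-a hypoxia-response element, scored as per-plate z-scores; higher means greater loss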
- Scale: z-score: higher = stronger loss of HIF reporter signal
In all, the deposit lists about 21,000 reagents; shown is an unselected part of those with a known target gene and a result. 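Primary screen; positive scores mean lost reporter signal, so the sign may be inverted from the usual convention.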 Names joined by + are all predicted targets of the reagent. Further read-outs or replicates are left out here. Reagent sequences are not shown.

| gene | dsRNA | z-score, replicate 1 | z-score, replicate 2 | z-score, replicate 3 |
| --- | --- | --- | --- | --- |
| Tsp86D (Tetraspanin 86D) | DRSC15607 | -0.3 | -0.2 | – |
| CG42827 + CG42828 | DRSC16116 | -0.2 | 0 | -0.3 |
| CG13148 | DRSC06275 | -0.1 | -0.1 | – |
| CG6712 | DRSC02981 | -0.4 | -0.7 | – |
| CG32066 | DRSC10652 | -0.4 | -0.5 | – |
| CG32066 | DRSC10653 | -0.4 | -0.7 | – |
| RpS19b (Ribosomal protein S19b) | DRSC15773 | 1.3 | 0.9 | – |
| Trf4 (TBP-related factor 4) | DRSC00729 | -0.1 | -0.3 | – |
| eIF4E4 (eukaryotic translation initiation factor 4E4) | DRSC09701 | 2.2 | 1.4 | – |
| CG6937 + btn | DRSC16917 | -0.1 | -0.4 | – |
| Gyg (Glycogenin) | DRSC03850 | 0.2 | -0.3 | – |
| Gyg (Glycogenin) | DRSC04556 | -0.3 | -0.4 | – |
| CG1136 | DRSC08184 | -0.3 | -0.6 | – |
| BBS1 (Bardet-Biedl syndrome 1) | DRSC10196 | 1 | -0.2 | – |
| CG2061 | DRSC19348 | -0.2 | -0.2 | – |
| beg (bad egg) | DRSC10923 | -0.2 | -0.1 | – |
| CG9393 | DRSC16486 | -0.3 | -0.5 | – |
| CG11828 | DRSC14394 | -0.1 | 0.1 | – |
| Adf1 (Adh transcription factor 1) | DRSC04941 | 0.1 | 0.1 | – |
| Adf1 (Adh transcription factor 1) | DRSC04963 | -0.2 | 0 | – |
| CG8475 | DRSC03091 | -0.4 | -0.7 | – |
| Golgin97 (Golgin 97) | DRSC06895 | -0.4 | -0.4 | – |
| Vha100-4 (Vacuolar H[+] ATPase 100kD subunit 4) | DRSC16282 | -0.4 | 0 | – |
| CG30345 | DRSC05144 | 0 | -0.1 | – |
| cpx (complexin) | DRSC11999 | -0.3 | -0.4 | – |
| aux (auxilin) | DRSC12161 | -0.2 | 0.1 | – |
| CG2003 | DRSC15411 | -0.3 | 0.3 | – |
| CG4297 | DRSC00651 | 0.2 | -0.3 | – |
| CG34386 | DRSC06467 | 1.8 | 0.1 | – |
| CG34386 | DRSC06468 | -0.4 | -0.9 | – |
| Osi8 (Osiris 8) | DRSC12277 | -0.2 | -0.1 | – |
| CG16898 | DRSC06635 | -0.3 | -0.1 | – |
| Lip3 (Lipase 3) | DRSC16727 | -0.4 | -0.4 | – |
| CG2310 | DRSC15438 | -0.2 | 0.1 | – |
| CG8066 | DRSC16374 | 0.2 | -0.3 | – |
| Irk3 (Inwardly rectifying potassium channel 3) | DRSC02047 | -0.2 | -0.3 | – |
| GstO1 (Glutathione S transferase O1) | DRSC10688 | -0.2 | -0.3 | – |
| swi2 | DRSC06457 | -0.1 | 0.1 | – |
| Nup214 (Nucleoporin 214kD) | DRSC04421 | -0.1 | 0.3 | – |
| Seipin | DRSC18654 | -0.2 | -0.5 | – |
| Cdc14 (Cell division cycle 14) | DRSC03013 | -0.1 | -0.2 | – |
| az2 | DRSC07580 | 0 | -0.1 | – |
| CG8299 | DRSC07139 | -0.3 | 0 | – |
| otu (ovarian tumor) | DRSC18811 | -0.3 | -0.4 | – |
| CG9338 | DRSC03213 | -0.3 | -1.3 | – |
| Trap1 | DRSC05019 | -0.1 | -0.3 | – |
| GAA1 (Glycosylphosphatidylinositol anchor attachment 1) | DRSC18267 | -0.3 | 0 | – |
| pie (pineapple eye) | DRSC03590 | -0.3 | -0.7 | – |
| mRpL16 (mitochondrial ribosomal protein L16) | DRSC18550 | -0.3 | -0.1 | – |
| bumpel | DRSC16100 | -0.3 | -0.2 | – |
| Sys1 (Sys1 golgi trafficking protein) | DRSC14372 | -0.3 | -0.6 | – |
| CG12279 | DRSC14495 | -0.2 | -0.4 | – |
| mod(mdg4) + pre-mod(mdg4)-Z + pre-mod(mdg4)-T | DRSC13477 | 0.6 | -0.1 | – |
| mod(mdg4) + pre-mod(mdg4)-Z + pre-mod(mdg4)-T | DRSC17001 | 0.2 | 0.9 | – |
| Ilp5 (Insulin-like peptide 5) | DRSC08998 | -0.2 | 0.1 | – |
| CG5122 | DRSC02816 | -0.4 | -0.1 | – |
| CYLD (Cylindromatosis) | DRSC02870 | 0 | 0.2 | – |
| CG7058 | DRSC20021 | -0.6 | -0.4 | – |
| CG4927 | DRSC06903 | -0.3 | -0.1 | – |
| pAbp (poly(A) binding protein) | DRSC07659 | -0.3 | -0.5 | – |
| Coq6 (Coenzyme Q6) | DRSC03040 | -0.3 | 0.1 | – |
| CG13841 | DRSC14691 | 1.5 | -0.4 | – |
| Dlip3 (Dorsal interacting protein 3) | DRSC07401 | -0.2 | -0.7 | – |
| CG14556 | DRSC14899 | -0.2 | -0.8 | – |
| CG9391 | DRSC11858 | -0.1 | 0.4 | – |
| CG7366 | DRSC10825 | -0.4 | -0.4 | – |
| CG11529 | DRSC09839 | -0.3 | -0.8 | – |
| HLH3B (Helix loop helix protein 3B) | DRSC18669 | -0.2 | -0.9 | – |
| CG6330 | DRSC16022 | -0.3 | -0.6 | – |
| mRpL4 (mitochondrial ribosomal protein L4) | DRSC03562 | 1.4 | 1 | – |
| Fum3 (Fumarase 3) | DRSC10592 | -0.2 | -0.7 | – |
| msopa (male-specific opa containing gene) | DRSC11895 | 1.9 | 4.5 | – |
| CG34159 | DRSC02885 | 3.1 | 2 | – |
| CG34316 | DRSC13080 | -0.6 | -0.4 | – |
| dan (distal antenna) | DRSC14406 | 0.1 | 0.7 | – |
| CG14313 | DRSC14792 | -0.6 | 0 | – |
| CG33234 | DRSC07994 | -0.3 | -0.2 | – |
| Lk (Leucokinin) | DRSC10022 | -0.1 | -0.3 | – |
| PGRP-SB1 (Peptidoglycan recognition protein SB1) | DRSC11090 | -0.3 | 0.2 | – |
| CG5662 | DRSC19957 | -0.6 | -0.3 | – |
| Or22b (Odorant receptor 22b) | DRSC00765 | -0.2 | 0 | – |
| mRpL30 (mitochondrial ribosomal protein L30) | DRSC18416 | 1 | 0.6 | – |
| Set2 (SET domain containing 2) | DRSC19765 | 0.7 | 0.3 | – |

An excerpt from the list above, as a working copy:
| gene | dsRNA | z-score, replicate 1 | z-score, replicate 2 | z-score, replicate 3 |
| --- | --- | --- | --- | --- |
| CG13148 | DRSC06275 | -0.1 | -0.1 | – |
| CG6712 | DRSC02981 | -0.4 | -0.7 | – |
| CG32066 | DRSC10652 | -0.4 | -0.5 | – |
| CG32066 | DRSC10653 | -0.4 | -0.7 | – |
| RpS19b (Ribosomal protein S19b) | DRSC15773 | 1.3 | 0.9 | – |
| Trf4 (TBP-related factor 4) | DRSC00729 | -0.1 | -0.3 | – |
| eIF4E4 (eukaryotic translation initiation factor 4E4) | DRSC09701 | 2.2 | 1.4 | – |
| CG6937 + btn | DRSC16917 | -0.1 | -0.4 | – |
| Gyg (Glycogenin) | DRSC03850 | 0.2 | -0.3 | – |
| Gyg (Glycogenin) | DRSC04556 | -0.3 | -0.4 | – |
| CG1136 | DRSC08184 | -0.3 | -0.6 | – |
| BBS1 (Bardet-Biedl syndrome 1) | DRSC10196 | 1 | -0.2 | – |
